Data from article doi:10.1101/2020.10.21.349357.
No constants are given. Whether binding was seen depends on the method and setting. Binding seen in cells or lysates may run through a third protein. Some results given as binding are weak or reduced against the parent protein; the word gives no strength. For some of these results: Tags and fused reporters may be left off the sequences shown.

Sequences of proteins named here, by UniProt entry; tags and fusion partners are left off. A change or cut given only in a name is not applied to a line headed by its entry.
UniProt O88522, whole entry: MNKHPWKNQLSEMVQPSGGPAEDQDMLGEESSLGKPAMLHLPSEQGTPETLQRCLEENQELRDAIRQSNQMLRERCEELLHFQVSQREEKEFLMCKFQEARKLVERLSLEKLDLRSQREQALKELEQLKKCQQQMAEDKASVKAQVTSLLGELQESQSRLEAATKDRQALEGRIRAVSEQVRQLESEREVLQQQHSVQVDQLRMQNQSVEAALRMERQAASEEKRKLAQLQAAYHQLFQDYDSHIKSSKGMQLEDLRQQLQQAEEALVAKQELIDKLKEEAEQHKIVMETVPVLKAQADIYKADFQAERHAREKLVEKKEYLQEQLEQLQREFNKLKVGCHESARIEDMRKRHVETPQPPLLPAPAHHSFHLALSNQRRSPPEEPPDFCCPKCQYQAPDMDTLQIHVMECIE
UniProt Q9Y6K9, whole entry: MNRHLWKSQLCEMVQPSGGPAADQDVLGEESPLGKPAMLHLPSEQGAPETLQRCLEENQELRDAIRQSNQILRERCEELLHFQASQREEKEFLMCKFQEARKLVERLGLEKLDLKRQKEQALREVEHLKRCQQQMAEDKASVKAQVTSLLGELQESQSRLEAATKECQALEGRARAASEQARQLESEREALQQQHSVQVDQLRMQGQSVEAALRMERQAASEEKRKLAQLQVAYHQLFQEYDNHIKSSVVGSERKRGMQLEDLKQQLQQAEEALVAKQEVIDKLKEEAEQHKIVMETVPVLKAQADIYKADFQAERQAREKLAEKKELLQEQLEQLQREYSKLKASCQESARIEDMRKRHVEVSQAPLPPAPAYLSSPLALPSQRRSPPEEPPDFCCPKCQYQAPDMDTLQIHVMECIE

Columns and labels:
[1] = target: T1, HA-N4BP1 424-aa cleavage product (truncation mutant) (human) (UniProt O75113); experiment: co-IP
T1 sequence: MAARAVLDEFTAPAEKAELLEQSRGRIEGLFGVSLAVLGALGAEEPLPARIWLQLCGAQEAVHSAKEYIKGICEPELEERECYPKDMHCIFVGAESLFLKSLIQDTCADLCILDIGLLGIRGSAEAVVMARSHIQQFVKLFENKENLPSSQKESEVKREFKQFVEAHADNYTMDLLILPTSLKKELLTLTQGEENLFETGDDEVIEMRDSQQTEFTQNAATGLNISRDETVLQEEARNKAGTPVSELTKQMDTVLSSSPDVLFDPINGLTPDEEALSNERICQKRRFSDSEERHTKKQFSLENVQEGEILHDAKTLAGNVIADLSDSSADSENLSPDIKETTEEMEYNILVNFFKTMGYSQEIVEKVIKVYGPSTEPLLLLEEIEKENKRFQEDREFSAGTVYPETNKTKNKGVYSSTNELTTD

[2] = target: T2, HA-N4BP1 490-aa cleavage product (truncation mutant) (human) (UniProt O75113); experiment: co-IP
T2 sequence: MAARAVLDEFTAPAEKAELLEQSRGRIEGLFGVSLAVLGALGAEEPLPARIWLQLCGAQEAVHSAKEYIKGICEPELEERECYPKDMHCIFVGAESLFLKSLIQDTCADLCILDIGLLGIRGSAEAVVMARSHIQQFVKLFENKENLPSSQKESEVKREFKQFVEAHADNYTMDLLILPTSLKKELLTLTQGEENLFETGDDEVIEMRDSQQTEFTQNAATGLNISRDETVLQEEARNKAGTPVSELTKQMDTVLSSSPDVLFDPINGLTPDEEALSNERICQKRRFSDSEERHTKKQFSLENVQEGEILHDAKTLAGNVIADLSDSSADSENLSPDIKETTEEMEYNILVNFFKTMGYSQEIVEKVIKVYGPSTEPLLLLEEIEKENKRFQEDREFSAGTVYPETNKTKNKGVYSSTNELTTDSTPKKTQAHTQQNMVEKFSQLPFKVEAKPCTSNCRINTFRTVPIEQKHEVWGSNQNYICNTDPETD

[3] = target: T3, HA-tagged N4BP1 (full length) (human) (UniProt O75113); experiment: co-IP
T3 sequence: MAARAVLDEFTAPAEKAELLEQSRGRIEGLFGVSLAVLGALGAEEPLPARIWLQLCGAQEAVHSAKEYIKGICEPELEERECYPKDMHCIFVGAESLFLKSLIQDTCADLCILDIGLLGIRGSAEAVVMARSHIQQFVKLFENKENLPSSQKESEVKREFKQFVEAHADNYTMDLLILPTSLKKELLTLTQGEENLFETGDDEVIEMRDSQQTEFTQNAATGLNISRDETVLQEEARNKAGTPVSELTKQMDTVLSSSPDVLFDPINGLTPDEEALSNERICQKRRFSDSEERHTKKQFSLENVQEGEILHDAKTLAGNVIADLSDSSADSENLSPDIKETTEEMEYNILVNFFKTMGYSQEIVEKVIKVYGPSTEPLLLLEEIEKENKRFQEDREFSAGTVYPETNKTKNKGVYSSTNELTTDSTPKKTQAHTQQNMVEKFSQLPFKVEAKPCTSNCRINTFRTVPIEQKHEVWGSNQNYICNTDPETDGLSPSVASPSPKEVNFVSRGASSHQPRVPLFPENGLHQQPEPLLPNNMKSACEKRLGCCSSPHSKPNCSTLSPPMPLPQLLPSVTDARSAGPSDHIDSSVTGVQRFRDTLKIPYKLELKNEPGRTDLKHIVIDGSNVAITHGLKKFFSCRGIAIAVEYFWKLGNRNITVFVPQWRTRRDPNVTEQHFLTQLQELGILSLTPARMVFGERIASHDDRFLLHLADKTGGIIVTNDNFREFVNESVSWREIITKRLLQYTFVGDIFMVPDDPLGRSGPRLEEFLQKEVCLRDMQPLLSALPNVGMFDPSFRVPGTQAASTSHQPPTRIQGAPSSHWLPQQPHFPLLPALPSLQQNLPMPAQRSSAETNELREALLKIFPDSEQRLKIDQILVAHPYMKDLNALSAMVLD

[4] = target: endogenous NEMO of mouse peritoneal macrophages (mouse (endogenous in peritoneal macrophages)) (UniProt O88522); experiment: cross-linking

“Flag-tagged NEMO (from UniProt Q9Y6K9 1-419)” was tested, and the binding [1] was “binds”, the binding [2] was “binds” and the binding [3] was “binds”.

With “endogenous NEMO of mouse peritoneal macrophages (from UniProt O88522 1-412)” the binding [4] was “binds”.
